Publication PMC6147799
Results are given in words; binding and its absence hold for the method and conditions named. In cells and extracts the contact can be indirect. Some entries that bind do so weakly or less than the wild type.

Protein sequences, listed by entry. Tags and fused reporters are not part of them.
UniProt P61809: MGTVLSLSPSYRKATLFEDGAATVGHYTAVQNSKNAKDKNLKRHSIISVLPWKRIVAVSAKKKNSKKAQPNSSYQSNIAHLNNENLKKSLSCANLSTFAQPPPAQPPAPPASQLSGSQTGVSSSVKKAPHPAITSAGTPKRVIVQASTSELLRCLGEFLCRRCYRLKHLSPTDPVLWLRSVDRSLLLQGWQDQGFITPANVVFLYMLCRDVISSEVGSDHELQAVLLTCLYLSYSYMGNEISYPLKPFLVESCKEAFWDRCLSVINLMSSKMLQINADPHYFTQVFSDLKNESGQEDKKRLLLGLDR
UniProt Q9QYB1: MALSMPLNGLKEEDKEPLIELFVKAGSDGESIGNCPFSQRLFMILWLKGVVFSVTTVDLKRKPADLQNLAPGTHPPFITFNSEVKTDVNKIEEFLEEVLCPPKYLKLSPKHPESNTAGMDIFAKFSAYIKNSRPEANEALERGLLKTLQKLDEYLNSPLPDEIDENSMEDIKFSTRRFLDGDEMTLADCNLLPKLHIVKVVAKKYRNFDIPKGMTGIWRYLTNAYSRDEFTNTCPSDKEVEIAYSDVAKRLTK

Assays:
[1] = target: Cyclin-dependent kinase 5 (CDK5), endogenous in mouse brain (mouse (endogenous in brain)) (UniProt P49615); assay: co-IP; brain homogenates of wild-type C57BL/6 mice in TNEN buffer; anti-CLIC4, anti-CDK5 or anti-p35 antibody overnight at 4 °C, Protein G Dynabeads 2 h at 4 °C; endogenous proteins, immunoblot
[2] = target: p35 (CDK5 activator), endogenous in mouse brain (mouse (endogenous in brain)) (UniProt P61809); assay: as above
[3] = target: GST-CLIC4 (glutathione S-transferase attached chloride intracellular channel 4) (UniProt Q9QYB1); assay: pull-down; GST or GST-CLIC4 transiently transfected in N2a cells, precipitated from lysates with Glutathione Sepharose for 2 h at 4 °C, washed with TNEN buffer (50 mM Tris-HCl 8.0, 150 mM NaCl, 5 mM EDTA, 1% NP-40); endogenous proteins detected by immunoblot
GST-CDK5 = GST-CDK5 (UniProt P49615); assay: pull-down; GST-CDK5 and HA-CLIC4 co-expressed in N2a cells, precipitated from lysates with Glutathione Sepharose for 2 h at 4 °C, washed with TNEN buffer; immunoblot
VC155-CLIC4 = VC155-CLIC4 (UniProt Q9QYB1); assay: split reporter; BiFC: VN173-CDK5 and VC155-CLIC4 co-expressed in N2a cells; reconstituted Venus-type GFP fluorescence seen by microscopy

In the case of “Chloride intracellular channel 4 (CLIC4), endogenous in mouse brain (from UniProt Q9QYB1 1-253)”, the binding [1] is reported as “binds” and the binding [2] is reported as “binds”.
“Cyclin-dependent kinase 5 (CDK5), endogenous in N2a cells (from UniProt P49615 1-292) (enzyme)” was tested, and the binding [3] was “binds”.
For HA-CLIC4 (from UniProt Q9QYB1 1-253), the binding (GST-CDK5) was “binds”.
With “VN173-CDK5 (from UniProt P49615 1-292) (enzyme)” the binding (VC155-CLIC4) was “binds”.
In the case of “p35 (CDK5 activator), endogenous in N2a cells (from UniProt P61809 1-307)”, the binding [3] is reported as “binds”.
